This note sets out measurements from patent US6673625B2, “Saccharide sensing molecules having enhanced fluorescent properties” (The Regents of the University of California, priority 1999, dated 2004).

This series is described as follows: Glucose testing of naphthalimide boronates by fluorescence. The conditions noted are these: PBS buffer (pH 7.4). The source says:
The fluorescence spectra of compounds 3 have been obtained as a function of increasing glucose concentration. […] These values range from 9% to 16% over the four compounds, with the two lower values coming from the two compounds having secondary amino groups. These low values of fractional switching are more than balanced out by the high quantum yields for compounds 3az and 3cz. As a measure of the total signal increase for each system, the product of quantum yield and fractional fluorescence increase are given in Table 1, showing that 3cz is the most promising sensor candidate of the group, as expected.
Summarized Syntheses. As the syntheses are described as a series of analogous compounds with general procedures are given below. Cyclic voltammetry was conducted using a glassy carbon working electrode, platinum counter electrode, and Ag/AgCl reference electrode and carried out in a 0.1 M solution of NBu4ClO4 in acetonitrile. Samples for fluorescence were prepared as 1.00 mM stock solutions in MeOH. A 30.0 μL aliquot of solution was then added to 3.000 mL of the appropriate solvent mixture (a combination of methanol and phosphate buffered saline—PBS). Relative quantum yields were determined by the relative output of equimolar solutions of two compounds using 3ay as a reference. Glucose additions were performed by the addition of a concentrated solution of glucose in PBS to a stirred solution of the fluorescent molecule in methanol/PBS.
General. All reactions were performed under an atmosphere of N2, followed by work-up in air. Protected boronate esters were stored under vacuum to prevent slow hydrolysis from atmospheric moisture. Unless stated otherwise, all chemicals were purchased from commercial suppliers. Anhydrous solvents from Aldrich were used for all reactions. Starting compounds known in the art such as N-n-butyl-4-chloronaphthalene-1,8-dicarboximide(1ax), 2,2-dimethylpropane-1,3-diyl[o-(bromomethyl) phenyl]boronate, were prepared by literature methods (see e.g. Daffy et al. Chem-Eur J 1998, 4, 1810-1815; de Silva et al., Chem Rev 1997, 97, 1515-1566). Samples for FT IR spectroscopy were prepared as solutions in CHCl3, and only the C═O stretches are reported here. All mass spectra were obtained using electrospray ionization (ESI/MS) with an ionization potential of 50V and a solvent system consisting of 1% acetic acid in 50/50 methanol/water. Cyclic voltammetry was conducted using a glassy carbon working electrode, platinum counter electrode, and Ag/AgCl reference electrode and carried out in a 0.1 M solution of NBu4ClO4 in acetonitrile. Samples for fluorescence measurements were prepared as 1.00 mM stock solutions in MeOH. […]
For the substance “N-n-Butyl-4-(N′-aminoethylene-N″-ArBmethylamino)naphthalene-1,8-dicarboximide [Compound 3az]”, the “(Quantum Yield) * (Fluorescence Increase)” value is recorded as 398%.

As to “N-(5′-Tetrahydropyranoxypentyl)-4-(N′-methylaminoethylene-N″-ArBmethylamino)naphthalene-1,8-dicarboximide [Compound 3cy]”, the “(Quantum Yield) * (Fluorescence Increase)” value turned out to be 17%.

Regarding “N-(5′-Tetrahydropyranoxypentyl)-4-(N′-aminoethylene-N″-ArBmethylamino)naphthalene-1,8-dicarboximide [Compound 3cz]”, the “(Quantum Yield) * (Fluorescence Increase)” value was 512%.

Consider “N-n-Butyl-4-(N′-methylaminoethylene-N″-ArBmethylamino)naphthalene-1,8-dicarboximide [Compound 3ay]”, for which the “(Quantum Yield) * (Fluorescence Increase)” value is recorded as 16%.
